In paper PMC10019571:
No constants are given. Whether binding was seen depends on the method and setting. In cells and extracts the contact can be indirect. Some binding calls cover weakened binding; strength is not graded here.

By UniProt entry, the sequences of proteins in these tests, tags left out.
UniProt P35240: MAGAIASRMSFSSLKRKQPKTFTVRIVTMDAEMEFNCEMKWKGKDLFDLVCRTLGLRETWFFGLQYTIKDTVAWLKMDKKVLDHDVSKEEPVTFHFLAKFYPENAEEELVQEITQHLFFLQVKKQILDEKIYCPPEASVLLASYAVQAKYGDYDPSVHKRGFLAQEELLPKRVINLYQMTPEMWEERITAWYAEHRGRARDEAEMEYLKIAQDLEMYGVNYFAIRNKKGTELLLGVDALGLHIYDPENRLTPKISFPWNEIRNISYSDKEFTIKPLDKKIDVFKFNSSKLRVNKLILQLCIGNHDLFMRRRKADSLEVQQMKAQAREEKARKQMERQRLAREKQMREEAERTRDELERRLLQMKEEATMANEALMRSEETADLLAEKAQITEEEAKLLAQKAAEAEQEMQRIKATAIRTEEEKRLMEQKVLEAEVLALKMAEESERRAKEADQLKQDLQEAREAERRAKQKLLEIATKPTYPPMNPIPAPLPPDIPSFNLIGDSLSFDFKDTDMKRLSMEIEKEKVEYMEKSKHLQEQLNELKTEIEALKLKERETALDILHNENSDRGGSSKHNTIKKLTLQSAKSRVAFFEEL
UniProt O95819: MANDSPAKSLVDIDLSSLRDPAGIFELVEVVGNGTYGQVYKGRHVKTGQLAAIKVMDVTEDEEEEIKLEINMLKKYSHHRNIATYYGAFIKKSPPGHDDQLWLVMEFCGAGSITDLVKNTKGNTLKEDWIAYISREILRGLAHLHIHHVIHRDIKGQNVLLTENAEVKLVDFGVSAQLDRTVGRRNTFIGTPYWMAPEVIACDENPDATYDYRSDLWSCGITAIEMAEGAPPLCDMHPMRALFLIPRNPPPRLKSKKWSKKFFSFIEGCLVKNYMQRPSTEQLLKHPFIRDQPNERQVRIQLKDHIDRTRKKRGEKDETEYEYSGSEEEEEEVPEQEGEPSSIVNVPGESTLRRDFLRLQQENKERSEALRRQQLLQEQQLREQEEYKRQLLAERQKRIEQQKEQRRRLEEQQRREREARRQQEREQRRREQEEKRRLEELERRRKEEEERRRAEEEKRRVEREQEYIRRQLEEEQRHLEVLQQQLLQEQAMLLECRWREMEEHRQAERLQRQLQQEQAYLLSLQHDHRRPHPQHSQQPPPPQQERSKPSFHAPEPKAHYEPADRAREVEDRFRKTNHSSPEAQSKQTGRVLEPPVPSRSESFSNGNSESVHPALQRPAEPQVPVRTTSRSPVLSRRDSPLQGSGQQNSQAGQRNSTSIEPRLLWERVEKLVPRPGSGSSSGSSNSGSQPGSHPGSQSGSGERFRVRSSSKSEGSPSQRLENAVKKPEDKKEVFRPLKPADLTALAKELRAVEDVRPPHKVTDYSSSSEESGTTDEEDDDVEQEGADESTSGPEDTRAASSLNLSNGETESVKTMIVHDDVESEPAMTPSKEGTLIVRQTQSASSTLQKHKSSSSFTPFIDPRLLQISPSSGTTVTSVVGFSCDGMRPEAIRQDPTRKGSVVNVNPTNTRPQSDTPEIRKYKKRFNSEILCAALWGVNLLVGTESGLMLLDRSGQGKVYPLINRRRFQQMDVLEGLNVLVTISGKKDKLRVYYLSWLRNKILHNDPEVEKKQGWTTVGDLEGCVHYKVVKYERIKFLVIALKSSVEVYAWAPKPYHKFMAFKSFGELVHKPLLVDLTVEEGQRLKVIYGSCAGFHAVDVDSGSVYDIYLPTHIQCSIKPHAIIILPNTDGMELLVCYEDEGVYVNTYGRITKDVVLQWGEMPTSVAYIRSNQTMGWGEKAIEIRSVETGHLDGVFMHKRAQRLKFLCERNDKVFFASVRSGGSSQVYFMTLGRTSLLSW

How the values were obtained:
Neurofibromin 2 (NF2) = Neurofibromin 2 (NF2) (UniProt P35240); assay: co-IP; endogenous coimmunoprecipitation assay (Fig. 1J); reciprocal co-immunoprecipitation (Figs. 1J and S5E); cells and buffers not shown
[1] = biological target: mitogen-activated protein kinase kinase kinase kinase 4 (MAP4K4) (UniProt O95819); assay: as above

Row | binding (Neurofibromin 2 (NF2)) | binding [1] | Substance
1 | binds | – | mitogen-activated protein kinase kinase kinase kinase 4 (MAP4K4) (from UniProt O95819 1-1239) (enzyme)
2 | – | binds | Neurofibromin 2 (NF2) (from UniProt P35240 1-595)
